Compound in this assay: Nc1nc2c(ncn2[C@@H]2O[C@H](COP(=O)(O)OP(=O)(O)OP(=O)(O)O)[C@@H](O)[C@H]2O)c(=O)[nH]1 [guanosine triphosphate]
Briefly: NP40-soluble protein abundance relative to vehicle (solubility fold change) (ratio); higher = more soluble protein in presence of GTP. The procedure, abridged: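 Jurkat crude lysate prepared with a Dounce homogeniser was treated at eight concentrations spanning 0.1 to 10 mM, 10 min at room temperature then 3 min at 37 °C. Solubilisation with 0.8% NP40 and benzonase and ultracentrifugation preceded TMT labelling of the supernatant for LC-MS/MS. Fold change against the detergent-processed vehicle was determined per replicate from vsn-normalised intensities, across three independent experiments.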

Sequences of proteins named here, by UniProt entry; tags and fusion partners are left off. A change or cut given only in a name is not applied to a line headed by its entry.
UniProt P49754: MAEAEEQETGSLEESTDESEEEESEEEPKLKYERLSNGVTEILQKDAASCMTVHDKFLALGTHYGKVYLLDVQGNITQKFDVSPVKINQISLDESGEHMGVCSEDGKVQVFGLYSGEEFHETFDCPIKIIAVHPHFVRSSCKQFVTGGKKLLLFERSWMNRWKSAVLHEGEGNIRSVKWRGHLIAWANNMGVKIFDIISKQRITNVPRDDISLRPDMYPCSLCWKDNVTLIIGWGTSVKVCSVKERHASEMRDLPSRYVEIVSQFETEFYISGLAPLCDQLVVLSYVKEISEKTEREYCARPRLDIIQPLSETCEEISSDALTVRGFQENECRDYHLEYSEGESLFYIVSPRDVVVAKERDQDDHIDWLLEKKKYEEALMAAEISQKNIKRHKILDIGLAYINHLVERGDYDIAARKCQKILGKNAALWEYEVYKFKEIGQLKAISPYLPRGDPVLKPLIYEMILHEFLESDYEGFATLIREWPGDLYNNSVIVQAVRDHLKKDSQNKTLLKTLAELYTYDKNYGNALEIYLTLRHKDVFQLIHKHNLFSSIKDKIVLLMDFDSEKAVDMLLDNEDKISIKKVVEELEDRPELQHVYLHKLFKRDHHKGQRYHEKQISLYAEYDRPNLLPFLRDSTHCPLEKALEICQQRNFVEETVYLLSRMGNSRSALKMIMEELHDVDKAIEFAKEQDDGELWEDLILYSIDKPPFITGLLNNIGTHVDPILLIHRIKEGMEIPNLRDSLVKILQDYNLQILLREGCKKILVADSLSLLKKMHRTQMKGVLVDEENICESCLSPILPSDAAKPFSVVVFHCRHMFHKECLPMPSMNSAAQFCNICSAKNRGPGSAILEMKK
UniProt P35250, whole entry: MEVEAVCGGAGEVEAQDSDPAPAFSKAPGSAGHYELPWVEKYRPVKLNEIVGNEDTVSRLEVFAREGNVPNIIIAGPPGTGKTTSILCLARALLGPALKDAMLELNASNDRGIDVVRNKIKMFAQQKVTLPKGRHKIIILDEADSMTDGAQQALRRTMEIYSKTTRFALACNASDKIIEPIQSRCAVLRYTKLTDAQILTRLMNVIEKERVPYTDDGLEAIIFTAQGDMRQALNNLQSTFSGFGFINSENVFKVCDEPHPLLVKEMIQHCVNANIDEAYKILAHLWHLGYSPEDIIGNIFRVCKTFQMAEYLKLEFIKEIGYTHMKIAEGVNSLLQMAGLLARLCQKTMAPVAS
UniProt P31942: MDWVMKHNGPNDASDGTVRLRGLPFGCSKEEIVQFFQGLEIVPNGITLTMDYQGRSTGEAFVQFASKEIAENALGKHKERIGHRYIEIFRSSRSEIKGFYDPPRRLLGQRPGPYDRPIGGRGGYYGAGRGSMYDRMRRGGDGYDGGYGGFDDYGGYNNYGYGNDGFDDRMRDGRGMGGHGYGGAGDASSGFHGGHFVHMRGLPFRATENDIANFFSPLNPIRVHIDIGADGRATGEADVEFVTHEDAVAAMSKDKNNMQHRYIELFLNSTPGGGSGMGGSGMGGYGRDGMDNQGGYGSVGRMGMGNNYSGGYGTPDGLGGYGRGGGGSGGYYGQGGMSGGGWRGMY
UniProt P42695: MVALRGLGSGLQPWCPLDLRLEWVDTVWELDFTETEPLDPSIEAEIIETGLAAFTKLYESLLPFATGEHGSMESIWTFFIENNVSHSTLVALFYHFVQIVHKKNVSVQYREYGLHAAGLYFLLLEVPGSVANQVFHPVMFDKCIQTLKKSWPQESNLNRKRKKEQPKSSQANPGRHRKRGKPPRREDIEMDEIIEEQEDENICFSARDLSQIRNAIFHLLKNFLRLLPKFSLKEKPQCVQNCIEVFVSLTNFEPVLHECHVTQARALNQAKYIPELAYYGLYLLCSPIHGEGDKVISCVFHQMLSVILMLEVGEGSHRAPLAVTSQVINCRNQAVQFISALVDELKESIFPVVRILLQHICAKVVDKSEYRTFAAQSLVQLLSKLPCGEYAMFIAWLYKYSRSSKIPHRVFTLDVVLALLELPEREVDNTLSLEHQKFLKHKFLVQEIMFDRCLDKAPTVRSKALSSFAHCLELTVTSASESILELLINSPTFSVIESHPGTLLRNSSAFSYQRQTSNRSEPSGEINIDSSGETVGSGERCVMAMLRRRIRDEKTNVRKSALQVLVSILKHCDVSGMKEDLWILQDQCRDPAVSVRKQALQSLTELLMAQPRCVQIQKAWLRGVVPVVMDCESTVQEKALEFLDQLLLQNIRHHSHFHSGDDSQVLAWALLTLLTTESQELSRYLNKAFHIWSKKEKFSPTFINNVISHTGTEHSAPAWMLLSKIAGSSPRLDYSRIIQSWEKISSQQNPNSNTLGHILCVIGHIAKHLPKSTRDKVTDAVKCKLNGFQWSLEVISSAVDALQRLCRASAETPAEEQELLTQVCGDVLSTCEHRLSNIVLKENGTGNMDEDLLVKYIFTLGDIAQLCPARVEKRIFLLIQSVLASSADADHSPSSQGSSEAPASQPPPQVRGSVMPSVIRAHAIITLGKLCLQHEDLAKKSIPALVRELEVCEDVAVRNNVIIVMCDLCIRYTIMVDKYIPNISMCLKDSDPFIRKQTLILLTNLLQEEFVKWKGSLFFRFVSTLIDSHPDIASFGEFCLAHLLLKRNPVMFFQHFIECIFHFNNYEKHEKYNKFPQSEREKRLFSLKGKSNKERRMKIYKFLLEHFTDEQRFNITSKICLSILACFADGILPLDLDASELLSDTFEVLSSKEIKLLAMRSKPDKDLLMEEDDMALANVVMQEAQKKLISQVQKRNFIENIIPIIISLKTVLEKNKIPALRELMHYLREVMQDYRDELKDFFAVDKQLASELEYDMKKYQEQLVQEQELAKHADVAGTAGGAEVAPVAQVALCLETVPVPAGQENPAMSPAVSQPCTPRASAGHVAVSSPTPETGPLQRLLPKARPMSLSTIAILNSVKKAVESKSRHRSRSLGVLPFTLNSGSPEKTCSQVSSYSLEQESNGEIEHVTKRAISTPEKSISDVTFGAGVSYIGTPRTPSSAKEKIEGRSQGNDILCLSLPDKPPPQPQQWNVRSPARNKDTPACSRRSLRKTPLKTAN
UniProt P46531, whole entry: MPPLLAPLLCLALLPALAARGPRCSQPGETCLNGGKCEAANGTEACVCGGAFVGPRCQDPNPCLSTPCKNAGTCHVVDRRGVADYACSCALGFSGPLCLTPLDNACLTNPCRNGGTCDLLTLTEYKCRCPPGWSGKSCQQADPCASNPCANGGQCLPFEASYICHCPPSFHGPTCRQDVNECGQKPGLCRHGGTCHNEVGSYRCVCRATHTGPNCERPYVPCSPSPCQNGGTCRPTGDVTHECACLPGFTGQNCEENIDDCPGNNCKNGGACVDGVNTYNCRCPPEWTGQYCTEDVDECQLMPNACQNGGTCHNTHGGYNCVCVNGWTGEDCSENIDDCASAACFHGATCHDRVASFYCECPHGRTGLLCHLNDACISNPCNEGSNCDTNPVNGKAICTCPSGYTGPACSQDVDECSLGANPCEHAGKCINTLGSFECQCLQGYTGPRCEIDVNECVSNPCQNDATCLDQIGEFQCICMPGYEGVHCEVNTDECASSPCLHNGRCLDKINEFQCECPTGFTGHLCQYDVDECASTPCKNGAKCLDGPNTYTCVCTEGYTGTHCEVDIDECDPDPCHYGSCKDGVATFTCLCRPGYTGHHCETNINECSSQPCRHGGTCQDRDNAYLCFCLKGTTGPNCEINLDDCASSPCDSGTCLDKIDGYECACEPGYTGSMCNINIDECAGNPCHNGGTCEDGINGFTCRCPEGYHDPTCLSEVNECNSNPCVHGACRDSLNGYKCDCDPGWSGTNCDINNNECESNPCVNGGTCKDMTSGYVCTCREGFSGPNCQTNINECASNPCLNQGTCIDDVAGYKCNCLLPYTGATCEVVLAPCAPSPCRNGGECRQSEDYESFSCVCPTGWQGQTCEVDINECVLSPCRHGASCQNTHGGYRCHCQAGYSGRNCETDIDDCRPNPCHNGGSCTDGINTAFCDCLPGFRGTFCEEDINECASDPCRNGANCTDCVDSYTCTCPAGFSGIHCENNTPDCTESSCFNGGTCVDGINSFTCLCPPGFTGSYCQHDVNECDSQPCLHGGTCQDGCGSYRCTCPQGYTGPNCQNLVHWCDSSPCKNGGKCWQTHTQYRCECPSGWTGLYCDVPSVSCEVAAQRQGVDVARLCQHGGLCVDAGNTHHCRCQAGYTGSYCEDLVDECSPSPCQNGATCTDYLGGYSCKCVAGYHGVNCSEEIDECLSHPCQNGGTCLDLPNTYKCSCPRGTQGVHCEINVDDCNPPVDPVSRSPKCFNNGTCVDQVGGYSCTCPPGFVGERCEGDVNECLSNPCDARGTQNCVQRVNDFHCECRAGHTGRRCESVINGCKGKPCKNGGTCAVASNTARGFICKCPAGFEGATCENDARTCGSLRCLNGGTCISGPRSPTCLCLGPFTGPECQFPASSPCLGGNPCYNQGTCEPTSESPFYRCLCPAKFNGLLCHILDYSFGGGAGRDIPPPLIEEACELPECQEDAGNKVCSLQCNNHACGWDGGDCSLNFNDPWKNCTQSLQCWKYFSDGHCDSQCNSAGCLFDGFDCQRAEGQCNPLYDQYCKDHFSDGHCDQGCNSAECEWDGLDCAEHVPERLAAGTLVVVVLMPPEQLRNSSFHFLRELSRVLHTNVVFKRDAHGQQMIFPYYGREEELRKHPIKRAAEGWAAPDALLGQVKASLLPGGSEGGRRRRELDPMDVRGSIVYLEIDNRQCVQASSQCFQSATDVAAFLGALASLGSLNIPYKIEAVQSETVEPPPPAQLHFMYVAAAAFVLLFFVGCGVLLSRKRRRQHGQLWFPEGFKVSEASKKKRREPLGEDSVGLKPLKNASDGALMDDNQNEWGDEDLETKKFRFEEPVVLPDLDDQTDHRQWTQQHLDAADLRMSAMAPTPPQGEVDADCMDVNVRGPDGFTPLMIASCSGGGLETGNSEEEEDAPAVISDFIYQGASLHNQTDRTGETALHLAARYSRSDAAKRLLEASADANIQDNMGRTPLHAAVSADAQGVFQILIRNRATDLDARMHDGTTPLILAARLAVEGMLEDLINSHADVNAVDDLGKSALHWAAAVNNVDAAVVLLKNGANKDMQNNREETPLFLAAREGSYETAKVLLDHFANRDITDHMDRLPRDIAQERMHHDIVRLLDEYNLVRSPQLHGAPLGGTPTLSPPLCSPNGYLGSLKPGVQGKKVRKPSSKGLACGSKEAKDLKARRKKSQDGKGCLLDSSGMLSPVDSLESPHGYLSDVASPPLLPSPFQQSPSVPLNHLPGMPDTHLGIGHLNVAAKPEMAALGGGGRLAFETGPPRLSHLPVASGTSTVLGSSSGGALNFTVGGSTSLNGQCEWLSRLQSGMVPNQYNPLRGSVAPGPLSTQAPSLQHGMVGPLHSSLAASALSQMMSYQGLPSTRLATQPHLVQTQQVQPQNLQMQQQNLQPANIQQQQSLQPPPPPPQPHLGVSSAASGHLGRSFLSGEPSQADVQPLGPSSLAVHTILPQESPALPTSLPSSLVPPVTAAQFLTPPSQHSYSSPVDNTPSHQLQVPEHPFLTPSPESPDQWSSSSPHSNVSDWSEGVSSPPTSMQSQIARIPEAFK
UniProt P48556: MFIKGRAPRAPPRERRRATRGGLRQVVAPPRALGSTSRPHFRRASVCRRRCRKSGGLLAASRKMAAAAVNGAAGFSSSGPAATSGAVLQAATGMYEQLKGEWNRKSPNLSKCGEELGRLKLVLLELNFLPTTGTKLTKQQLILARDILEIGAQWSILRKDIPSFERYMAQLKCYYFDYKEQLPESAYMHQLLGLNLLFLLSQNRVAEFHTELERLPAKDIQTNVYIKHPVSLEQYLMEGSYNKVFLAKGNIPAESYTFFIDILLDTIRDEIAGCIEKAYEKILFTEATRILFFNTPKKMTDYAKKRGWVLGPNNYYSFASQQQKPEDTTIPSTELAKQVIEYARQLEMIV
UniProt P48426: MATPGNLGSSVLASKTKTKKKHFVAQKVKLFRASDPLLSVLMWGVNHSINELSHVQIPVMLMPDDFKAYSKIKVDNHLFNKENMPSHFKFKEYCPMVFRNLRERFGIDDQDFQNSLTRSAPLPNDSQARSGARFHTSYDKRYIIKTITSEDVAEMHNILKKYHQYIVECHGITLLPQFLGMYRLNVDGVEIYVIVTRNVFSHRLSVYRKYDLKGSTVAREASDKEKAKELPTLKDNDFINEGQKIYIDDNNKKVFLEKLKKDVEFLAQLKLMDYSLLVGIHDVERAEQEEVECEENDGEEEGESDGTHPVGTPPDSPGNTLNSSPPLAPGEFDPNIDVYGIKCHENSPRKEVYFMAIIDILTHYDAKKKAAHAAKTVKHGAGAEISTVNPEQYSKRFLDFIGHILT

± gives the standard deviation of the averaged measurements. This is one part of the list.

In the case of RPL29 (UniProt P47914), the NP40-soluble protein abundance (concentration: 0.1mM) was 0.982 ± 0.1; the NP40-soluble protein abundance (concentration: 0.5mM) was 0.997 ± 0.14; the NP40-soluble protein abundance (concentration: 1mM) amounted to 1.21 ± 0.15; the NP40-soluble protein abundance (concentration: 2mM) worked out at 1.09 ± 0.17; the NP40-soluble protein abundance (concentration: 4mM) is 1.07 ± 0.22; the NP40-soluble protein abundance (concentration: 6mM) amounted to 0.991 ± 0.23. Further, the NP40-soluble protein abundance reads like this: (concentration: 8mM) 1.02 ± 0.33; (concentration: 10mM) 1.12 ± 0.29.

Turning to GNPDA1 (UniProt P46926), the NP40-soluble protein abundance is, setting by setting: (concentration: 0.1mM) 1.05 ± 0.035; (concentration: 0.5mM) 1.03 ± 0.099; (concentration: 1mM) 0.951 ± 0.041; (concentration: 2mM) 0.933 ± 0.094; (concentration: 4mM) 0.915 ± 0.043; (concentration: 6mM) 0.91 ± 0.061. Also, the NP40-soluble protein abundance runs as follows: (concentration: 8mM) 0.8707 ± 0.0069; (concentration: 10mM) 0.817 ± 0.04.

On to “P39880-3|Q13948 and related entries (UniProt Q13948+P39880)”, for which the NP40-soluble protein abundance worked out at 0.948 ± 0.035 (concentration: 0.1mM); 0.948 ± 0.058 (concentration: 0.5mM); 1.01 ± 0.049 (concentration: 1mM); 0.978 ± 0.063 (concentration: 2mM); 1.01 ± 0.054 (concentration: 4mM); 0.997 ± 0.052 (concentration: 6mM). Further, the NP40-soluble protein abundance was determined as 1.03 ± 0.024 (concentration: 8mM) and 1.05 ± 0.063 (concentration: 10mM).

On to UniProt P49754 and related entries, for which the NP40-soluble protein abundance reads like this: (concentration: 0.1mM) 1 ± 0.12; (concentration: 0.5mM) 1 ± 0.13; (concentration: 1mM) 0.912 ± 0.058; (concentration: 2mM) 1.03 ± 0.16; (concentration: 4mM) 0.914 ± 0.28; (concentration: 6mM) 0.942 ± 0.2. The NP40-soluble protein abundance runs as follows: (concentration: 8mM) 0.992 ± 0.2; (concentration: 10mM) 0.986 ± 0.21.

In the case of RFC2 (UniProt P35250), the NP40-soluble protein abundance (concentration: 0.1mM) was found to be 1.08 ± 0.011; the NP40-soluble protein abundance (concentration: 0.5mM) was 1.08 ± 0.049; the NP40-soluble protein abundance (concentration: 1mM) was 1.11 ± 0.05; the NP40-soluble protein abundance (concentration: 2mM) stood at 1.16 ± 0.086; the NP40-soluble protein abundance (concentration: 4mM) came to 1.23 ± 0.075; the NP40-soluble protein abundance (concentration: 6mM) amounted to 1.2 ± 0.092. Moreover, the NP40-soluble protein abundance amounted to 1.21 ± 0.057 (concentration: 8mM) and 1.17 ± 0.042 (concentration: 10mM).

Take MRPL19 (UniProt P49406): the NP40-soluble protein abundance reads like this: (concentration: 0.1mM) 1.11 ± 0.077; (concentration: 0.5mM) 1.14 ± 0.19; (concentration: 1mM) 1.23 ± 0.3; (concentration: 2mM) 1.33 ± 0.37; (concentration: 4mM) 1.35 ± 0.4; (concentration: 6mM) 1.33 ± 0.36. Also, the NP40-soluble protein abundance is, setting by setting: (concentration: 8mM) 1.34 ± 0.36; (concentration: 10mM) 1.15 ± 0.29.

As to UniProt P32780 and related entries, the NP40-soluble protein abundance was 1.01 ± 0.044 (concentration: 0.1mM); 1.04 ± 0.066 (concentration: 0.5mM); 1.05 ± 0.041 (concentration: 1mM); 1.1 ± 0.055 (concentration: 2mM); 1.12 ± 0.089 (concentration: 4mM); 1.12 ± 0.099 (concentration: 6mM). Further, the NP40-soluble protein abundance is, setting by setting: (concentration: 8mM) 1.14 ± 0.12; (concentration: 10mM) 1.21 ± 0.095.

Take UniProt P31942 and related entries: the NP40-soluble protein abundance worked out at 0.98 ± 0.02 (concentration: 0.1mM); 1.06 ± 0.02 (concentration: 0.5mM); 1.08 ± 0.094 (concentration: 1mM); 1.15 ± 0.15 (concentration: 2mM); 1.16 ± 0.2 (concentration: 4mM); 1.22 ± 0.19 (concentration: 6mM). Further, the NP40-soluble protein abundance (concentration: 8mM) came to 1.22 ± 0.2 and the NP40-soluble protein abundance (concentration: 10mM) was 1.2 ± 0.18.

On to NCAPD3 (UniProt P42695), for which the NP40-soluble protein abundance was 0.988 ± 0.028 (concentration: 0.1mM); 1.05 ± 0.038 (concentration: 0.5mM); 1.07 ± 0.012 (concentration: 1mM); 1.08 ± 0.039 (concentration: 2mM); 1.11 ± 0.087 (concentration: 4mM); 1.11 ± 0.095 (concentration: 6mM). Besides, the NP40-soluble protein abundance by setting is: (concentration: 8mM) 1.14 ± 0.14; (concentration: 10mM) 1.06 ± 0.038.

RPS19 (UniProt P39019): the NP40-soluble protein abundance (concentration: 0.1mM) came to 0.837 ± 0.13; the NP40-soluble protein abundance (concentration: 0.5mM) was determined as 0.891 ± 0.15; the NP40-soluble protein abundance (concentration: 1mM) came to 1.13 ± 0.38; the NP40-soluble protein abundance (concentration: 2mM) was 1.1 ± 0.33; the NP40-soluble protein abundance (concentration: 4mM) worked out at 0.955 ± 0.39; the NP40-soluble protein abundance (concentration: 6mM) turned out to be 0.892 ± 0.35. Also, the NP40-soluble protein abundance came out at 0.59 ± 0.19 (concentration: 8mM) and 0.92 ± 0.41 (concentration: 10mM).

For UniProt P49674, the NP40-soluble protein abundance by setting is: (concentration: 0.1mM) 1.1 ± 0.097; (concentration: 0.5mM) 1.12 ± 0.18; (concentration: 1mM) 1.03 ± 0.1; (concentration: 2mM) 1.01 ± 0.056; (concentration: 4mM) 1 ± 0.073; (concentration: 6mM) 1.08 ± 0.091. The NP40-soluble protein abundance was found to be 1.19 ± 0.063 (concentration: 8mM) and 1.14 ± 0.068 (concentration: 10mM).

As for ETFB (UniProt P38117), the NP40-soluble protein abundance (concentration: 0.1mM) was 0.972 ± 0.025; the NP40-soluble protein abundance (concentration: 0.5mM) was determined as 0.991 ± 0.062; the NP40-soluble protein abundance (concentration: 1mM) came to 0.885 ± 0.028; the NP40-soluble protein abundance (concentration: 2mM) came to 0.878 ± 0.085; the NP40-soluble protein abundance (concentration: 4mM) turned out to be 0.814 ± 0.076; the NP40-soluble protein abundance (concentration: 6mM) stood at 0.879 ± 0.08. Further, the NP40-soluble protein abundance runs as follows: (concentration: 8mM) 0.794 ± 0.045; (concentration: 10mM) 0.797 ± 0.071.

With NOTCH1 (UniProt P46531), the NP40-soluble protein abundance was 1.06 ± 0.016 (concentration: 0.1mM); 1.03 ± 0.03 (concentration: 0.5mM); 1.04 ± 0.058 (concentration: 1mM); 1.07 ± 0.071 (concentration: 2mM); 1.05 ± 0.043 (concentration: 4mM); 1.03 ± 0.051 (concentration: 6mM). Further, the NP40-soluble protein abundance (concentration: 8mM) amounted to 1.04 ± 0.042 and the NP40-soluble protein abundance (concentration: 10mM) was found to be 0.991 ± 0.065.

For UniProt P48556 and related entries, the NP40-soluble protein abundance was found to be 1.07 ± 0.12 (concentration: 0.1mM); 1.01 ± 0.17 (concentration: 0.5mM); 1.09 ± 0.17 (concentration: 1mM); 1.13 ± 0.22 (concentration: 2mM); 1.13 ± 0.16 (concentration: 4mM); 1.09 ± 0.21 (concentration: 6mM). Moreover, the NP40-soluble protein abundance (concentration: 8mM) turned out to be 1.05 ± 0.16 and the NP40-soluble protein abundance (concentration: 10mM) was determined as 1.02 ± 0.2.

With UniProt P48426 and related entries, the NP40-soluble protein abundance (concentration: 0.1mM) came out at 0.972 ± 0.05; the NP40-soluble protein abundance (concentration: 0.5mM) worked out at 0.999 ± 0.027; the NP40-soluble protein abundance (concentration: 1mM) was found to be 0.949 ± 0.029; the NP40-soluble protein abundance (concentration: 2mM) was 0.965 ± 0.041; the NP40-soluble protein abundance (concentration: 4mM) was 0.968 ± 0.034; the NP40-soluble protein abundance (concentration: 6mM) was 1.06 ± 0.052. Also, the NP40-soluble protein abundance is, setting by setting: (concentration: 8mM) 1.07 ± 0.042; (concentration: 10mM) 1.1 ± 0.053.
